In assay [1] the target is human albumin (human) (UniProt P02768). Put plainly: phage ELISA.
In the next assay the target is rhesus albumin (rhesus) (UniProt Q28522). Put plainly: phage ELISA, photograph of the plate. On the technique in general: In an ELISA, binding on a coated surface is turned into a signal by an enzyme label.
The target in a further assay is bovine albumin (bovine) (UniProt P02769). Put plainly: phage ELISA, photograph of the plate.
The target of assay [2] is human albumin (human) (UniProt P02768). Description: phage ELISA, photograph of the plate.
Assay [3] deals with IgG-Fc [IgG part: P01857]. Description: general note of Table I; phage clone, M13/gIII display, ALA scan, EC50 in its own row.
For assay [4], the target named is rabbit albumin (rabbit) (UniProt P49065). Description: phage ELISA.
For assay [5], the target named is rat albumin (rat) (UniProt P02770). Put plainly: phage ELISA.
The target of assay [6] is rabbit albumin (rabbit) (UniProt P49065). Put plainly: phage ELISA, photograph of the plate.
The target of the next assay is mouse albumin (mouse) (UniProt P07724). Put plainly: phage ELISA, photograph of the plate.
Assay [7] deals with rat albumin (rat) (UniProt P02770). Description: phage ELISA, photograph of the plate.

By UniProt entry, the sequences of proteins in these tests, tags left out. Residues count along the entry.
UniProt P02768, residues 25-609: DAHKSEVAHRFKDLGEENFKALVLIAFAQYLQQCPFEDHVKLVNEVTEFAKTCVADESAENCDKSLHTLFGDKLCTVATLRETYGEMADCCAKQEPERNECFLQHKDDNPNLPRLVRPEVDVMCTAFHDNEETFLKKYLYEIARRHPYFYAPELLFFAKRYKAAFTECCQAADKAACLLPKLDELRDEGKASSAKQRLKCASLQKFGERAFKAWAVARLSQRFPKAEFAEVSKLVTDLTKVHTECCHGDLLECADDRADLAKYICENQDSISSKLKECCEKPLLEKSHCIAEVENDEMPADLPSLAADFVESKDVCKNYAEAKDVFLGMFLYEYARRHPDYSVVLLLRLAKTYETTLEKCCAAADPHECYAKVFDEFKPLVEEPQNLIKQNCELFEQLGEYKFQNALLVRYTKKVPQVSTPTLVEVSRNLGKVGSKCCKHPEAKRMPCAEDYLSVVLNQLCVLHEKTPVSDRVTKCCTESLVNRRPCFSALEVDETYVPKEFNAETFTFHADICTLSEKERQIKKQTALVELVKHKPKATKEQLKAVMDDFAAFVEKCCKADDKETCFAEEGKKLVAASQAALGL
UniProt Q28522, residues 17-600: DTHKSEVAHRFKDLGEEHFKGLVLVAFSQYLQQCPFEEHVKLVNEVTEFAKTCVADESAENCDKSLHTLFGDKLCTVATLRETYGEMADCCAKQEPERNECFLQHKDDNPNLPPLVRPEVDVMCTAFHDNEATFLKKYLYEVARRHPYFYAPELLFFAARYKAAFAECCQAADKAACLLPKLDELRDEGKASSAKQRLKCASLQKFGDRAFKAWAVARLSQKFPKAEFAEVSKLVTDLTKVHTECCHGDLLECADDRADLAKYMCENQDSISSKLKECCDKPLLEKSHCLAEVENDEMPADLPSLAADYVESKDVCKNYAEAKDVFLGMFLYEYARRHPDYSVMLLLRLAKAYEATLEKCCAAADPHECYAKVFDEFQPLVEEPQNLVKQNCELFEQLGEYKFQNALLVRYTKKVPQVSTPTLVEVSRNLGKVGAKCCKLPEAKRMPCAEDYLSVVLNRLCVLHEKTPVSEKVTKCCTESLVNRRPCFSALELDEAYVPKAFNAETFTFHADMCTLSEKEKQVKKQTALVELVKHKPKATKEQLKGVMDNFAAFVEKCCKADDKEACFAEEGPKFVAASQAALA
UniProt P02769, residues 25-607: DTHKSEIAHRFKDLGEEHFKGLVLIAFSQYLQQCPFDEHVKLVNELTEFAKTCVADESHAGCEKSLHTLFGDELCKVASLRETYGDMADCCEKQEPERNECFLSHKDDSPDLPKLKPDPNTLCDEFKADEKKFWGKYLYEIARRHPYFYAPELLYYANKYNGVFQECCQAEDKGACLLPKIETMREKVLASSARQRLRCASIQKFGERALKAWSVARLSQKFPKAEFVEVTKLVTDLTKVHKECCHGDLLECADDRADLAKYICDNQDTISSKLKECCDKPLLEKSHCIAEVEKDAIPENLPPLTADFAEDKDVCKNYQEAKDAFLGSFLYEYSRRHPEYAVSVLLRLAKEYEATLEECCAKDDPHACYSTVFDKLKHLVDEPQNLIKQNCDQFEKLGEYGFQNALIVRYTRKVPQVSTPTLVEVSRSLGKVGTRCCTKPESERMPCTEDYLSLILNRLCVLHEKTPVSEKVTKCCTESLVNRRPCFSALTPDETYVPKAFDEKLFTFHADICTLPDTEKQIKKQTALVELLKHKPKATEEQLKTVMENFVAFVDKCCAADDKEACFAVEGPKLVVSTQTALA
UniProt P49065, residues 25-608: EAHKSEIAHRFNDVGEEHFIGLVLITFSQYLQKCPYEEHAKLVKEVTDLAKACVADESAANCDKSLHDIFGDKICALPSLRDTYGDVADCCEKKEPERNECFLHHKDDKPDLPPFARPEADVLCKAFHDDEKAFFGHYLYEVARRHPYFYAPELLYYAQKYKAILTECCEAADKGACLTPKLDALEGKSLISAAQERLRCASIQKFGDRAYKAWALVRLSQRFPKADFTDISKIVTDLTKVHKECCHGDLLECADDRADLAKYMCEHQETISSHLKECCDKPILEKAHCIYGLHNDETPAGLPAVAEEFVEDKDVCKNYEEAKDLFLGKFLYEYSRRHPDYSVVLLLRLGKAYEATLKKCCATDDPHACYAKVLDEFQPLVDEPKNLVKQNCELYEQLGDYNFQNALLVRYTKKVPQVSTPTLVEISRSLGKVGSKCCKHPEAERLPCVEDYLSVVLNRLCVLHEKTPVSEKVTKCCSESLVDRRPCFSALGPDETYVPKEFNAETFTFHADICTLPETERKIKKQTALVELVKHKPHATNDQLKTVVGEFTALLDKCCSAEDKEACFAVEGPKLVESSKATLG
UniProt P02770, residues 25-608: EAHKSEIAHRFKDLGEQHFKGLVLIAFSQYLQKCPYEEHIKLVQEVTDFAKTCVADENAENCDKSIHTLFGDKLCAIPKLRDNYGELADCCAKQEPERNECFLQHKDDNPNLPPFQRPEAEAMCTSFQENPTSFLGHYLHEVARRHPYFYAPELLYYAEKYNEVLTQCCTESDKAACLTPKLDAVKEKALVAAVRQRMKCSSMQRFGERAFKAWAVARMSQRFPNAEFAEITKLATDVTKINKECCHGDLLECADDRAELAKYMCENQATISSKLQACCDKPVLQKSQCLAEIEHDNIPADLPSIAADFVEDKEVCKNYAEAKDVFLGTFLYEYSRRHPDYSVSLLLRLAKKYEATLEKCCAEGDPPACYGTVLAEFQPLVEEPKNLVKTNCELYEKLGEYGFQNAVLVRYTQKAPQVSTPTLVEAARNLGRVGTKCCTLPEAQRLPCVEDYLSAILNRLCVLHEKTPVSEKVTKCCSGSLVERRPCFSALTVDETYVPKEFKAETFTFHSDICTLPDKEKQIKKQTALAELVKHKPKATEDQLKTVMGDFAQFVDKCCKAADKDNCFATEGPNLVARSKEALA
UniProt P07724, residues 25-608: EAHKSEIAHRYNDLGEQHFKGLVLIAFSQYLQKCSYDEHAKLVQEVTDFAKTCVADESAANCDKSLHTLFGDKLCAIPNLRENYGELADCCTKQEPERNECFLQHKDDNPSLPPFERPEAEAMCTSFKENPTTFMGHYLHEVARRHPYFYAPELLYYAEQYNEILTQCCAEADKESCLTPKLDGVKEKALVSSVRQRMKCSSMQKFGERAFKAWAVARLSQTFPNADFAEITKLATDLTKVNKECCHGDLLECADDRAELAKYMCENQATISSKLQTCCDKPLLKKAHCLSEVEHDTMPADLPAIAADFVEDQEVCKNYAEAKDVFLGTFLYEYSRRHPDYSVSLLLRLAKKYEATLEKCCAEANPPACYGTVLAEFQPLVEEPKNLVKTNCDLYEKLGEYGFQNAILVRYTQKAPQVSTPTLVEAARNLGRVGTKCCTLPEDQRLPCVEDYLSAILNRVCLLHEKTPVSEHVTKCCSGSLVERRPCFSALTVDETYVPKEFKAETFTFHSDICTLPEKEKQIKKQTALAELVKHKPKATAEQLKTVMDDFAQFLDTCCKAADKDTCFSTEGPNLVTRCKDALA

Experimental findings from patent US20040253247A1 are described below.

Results are given in words; binding and its absence hold for the method and conditions named. Some binding calls cover weakened binding; strength is not graded here. For some of these results: Sequences can lack the tags named with a protein.

B1: HB-H2 (peptide)
peptide: RAAESSVCYWPGICFDRTEQ
For B1, the binding entry in the assay with human albumin (human) [1], with rhesus albumin (rhesus), with bovine albumin (bovine) and in the assay with human albumin (human) [2] was “binds” each time.

B2: HA-H74 (peptide)
peptide: EVRSFCTDWPAHYSCTSLQG
Consider B2, for which the binding entry with human albumin (human) [1] and with human albumin (human) [2] was “binds” each time.

B3: phage clone … (peptide)
peptide: WEADCAWHAGELVWCTKVEE
Consider B3, for which, in assay [3], the binding entry is reported as “binds”.

B4: phage clone … (peptide)
peptide: WEADCAWHLGELAWCTKVEE
B4: in assay [3], the binding entry was “binds”.

B5: RB-B9 (peptide)
peptide: QMHMMDICLPKWGCLWGDTS
Regarding B5, the binding entry in the assay with rabbit albumin (rabbit) [4], with rat albumin (rat) [5] and in the assay with human albumin (human) [1] was “binds” throughout.

B6: BA-B39 (peptide)
peptide: MELWCDSTLMAYDLCGDFNM
Turning to B6, the binding entry with rabbit albumin (rabbit) [4] and with rabbit albumin (rabbit) [6] was “binds” throughout.

B7: RBC-R16 (peptide)
peptide: EWDVCLPHWGCLWDG
Regarding B7, the binding result with rabbit albumin (rabbit) [4] and in the assay with rat albumin (rat) [5] was “binds” each time.

B8: phage clone … (peptide)
peptide: WEPDCAWHLGELVWCTKVEE
For the molecule B8, the binding entry in assay [3] was “binds”.

B9: RB-B14 (peptide)
peptide: LRIFEDICLPKWGCLWGEGF
As for B9, the binding entry in the assay with rabbit albumin (rabbit) [4], in the assay with rat albumin (rat) [5] and in the assay with human albumin (human) [1] was “binds” each time.

B10: HC-R10 (peptide)
peptide: QRDMGDICLPRWGCLWEDGV
Regarding B10, the binding entry with rabbit albumin (rabbit) [4], with rat albumin (rat) [5] and in the assay with human albumin (human) [1] was “binds” in each case.

B11: phage clone … (peptide)
peptide: WEADCAWHLGEAVWCTKVEE
Consider B11, for which, in assay [3], the binding entry is on record as “binds”.

B12: RB-B5 (peptide)
peptide: QWHMEDICLPQWGCLWGDVL
On to B12, for which the binding entry with rabbit albumin (rabbit) [4], with rat albumin (rat) [5] and with human albumin (human) [1] was “binds” in each case.

B13: BA-B37 (peptide)
peptide: GENWCDWVLLAYDLCGEDNT
Regarding B13, the binding entry with rabbit albumin (rabbit) [4] and in the assay with rabbit albumin (rabbit) [6] was “binds” in each case.

B14: phage clone … (peptide)
peptide: WEADCAWHLGELVWCTAVEE
In the case of B14, in assay [3], the binding entry is “binds”.

B15: RB-R17 (peptide)
peptide: QGGMGDFCLPQWGCLWGEDL
As for B15, the binding result in the assay with rabbit albumin (rabbit) [4] and with rat albumin (rat) [5] was “binds” throughout.

B16: RB-B11 (peptide)
peptide: QWQVMDICLPRWGCLWADEY
For the molecule B16, the binding entry with rabbit albumin (rabbit) [4], with rat albumin (rat) [5] and in the assay with human albumin (human) [1] was “binds” in each case.

B17: RB-B6 (peptide)
peptide: QWQMENVCLPKWGCLWEELD
With B17, the binding result in the assay with rabbit albumin (rabbit) [4], with rat albumin (rat) [5] and with human albumin (human) [1] was “binds” each time.

B18: phage clone … (peptide)
peptide: AEADCAWHLGELVWCTKVEE
Take B18: the binding entry in [3] is reported as “binds”.

B19: RB-B8 (peptide)
peptide: HSQMEDICLPRWGCLWGDEL
On to B19, for which the binding entry with rabbit albumin (rabbit) [4], with rat albumin (rat) [5], with human albumin (human) [1], with mouse albumin (mouse), with rhesus albumin (rhesus) and with bovine albumin (bovine) was “binds” throughout. Besides, the binding result in the assay with rabbit albumin (rabbit) [6], in the assay with rat albumin (rat) [7] and with human albumin (human) [2] was “binds” each time.

B20: BA-B44 (peptide)
peptide: GEDWCDSTLLAFDLCGEGAR
In the case of B20, the binding result with rabbit albumin (rabbit) [4] and in the assay with rabbit albumin (rabbit) [6] was “binds” each time.

B21: RB-B7 (peptide)
peptide: LRLMDNICLPRWGCLWDDGF
As to B21, the binding entry in the assay with rabbit albumin (rabbit) [4], with rat albumin (rat) [5] and in the assay with human albumin (human) [1] was “binds” in each case.

B22: RB-H6 (peptide)
peptide: NRQMEDICLPQWGCLWGDDF
Turning to B22, the binding entry with rabbit albumin (rabbit) [4], in the assay with rat albumin (rat) [5] and with human albumin (human) [1] was “binds” throughout.

B23: phage clone … (peptide)
peptide: WEADCAWHLGALVWCTKVEE
B23: the binding entry in assay [3] was “binds”.

B24: RBC-R14 (peptide)
peptide: EEDLCLPVWGCLWGA
For the molecule B24, the binding result with rat albumin (rat) [5], in the assay with mouse albumin (mouse) and with rat albumin (rat) [7] was “binds” throughout.

B25: phage clone … (peptide)
peptide: WEADCAWALGELVWCTKVEE
Consider B25, for which the binding result in assay [3] is “binds”.

B26: RB-B3 (peptide)
peptide: QSYMEDICLPRWGCLSDDAS
For B26, the binding entry in the assay with rabbit albumin (rabbit) [4], with rat albumin (rat) [5] and with human albumin (human) [1] was “binds” throughout.

B27: phage clone … (peptide)
peptide: WEADCAWHLGELVWCTKAEE
As to B27, the binding entry in assay [3] is listed as “binds”.

B28: RB-B12 (peptide)
peptide: QGLIGDICLPRWGCLWGDSV
B28: the binding entry with rabbit albumin (rabbit) [4], with rat albumin (rat) [5] and with human albumin (human) [1] was “binds” in each case.

B29: phage clone … (peptide)
peptide: WEADCAWHLGELVWCTKVAE
Regarding B29, the binding result in assay [3] is “binds”.

B30: RB-R8 (peptide)
peptide: QGLIGDICLPRWGCLWGDSV
Take B30: the binding entry with rabbit albumin (rabbit) [4], with rat albumin (rat) [5], with human albumin (human) [1], with mouse albumin (mouse), with rhesus albumin (rhesus) and in the assay with bovine albumin (bovine) was “binds” each time. In addition, the binding result with rabbit albumin (rabbit) [6], in the assay with rat albumin (rat) [7] and with human albumin (human) [2] was “binds” in each case.

B31: RB-B16 (peptide)
peptide: HRLVEDICLPRWGCLWGNDF
On to B31, for which the binding result in the assay with rabbit albumin (rabbit) [4], with rat albumin (rat) [5] and in the assay with human albumin (human) [1] was “binds” throughout.

B32: phage clone … (peptide)
peptide: WEADCAWHLGELVWCAKVEE
For the molecule B32, the binding result in assay [3] is reported as “binds”.

B33: RB-B4 (peptide)
peptide: LWAMEDICLPKWGCLWEDDF
With B33, the binding result in the assay with rabbit albumin (rabbit) [4], with rat albumin (rat) [5] and in the assay with human albumin (human) [1] was “binds” each time.

B34: RB-R16 (peptide)
peptide: LIFMEDVCLPQWGCLWEDGV
Consider B34, for which the binding entry in the assay with rabbit albumin (rabbit) [4], with rat albumin (rat) [5] and with human albumin (human) [1] was “binds” in each case.

B35: phage clone … (peptide)
peptide: WEADCAWHLAELVWCTKVEE
Consider B35, for which the binding result in assay [3] is on record as “binds”.

B36: phage clone … (peptide)
peptide: WEADCAWHLGELVACTKVEE
Take B36: the binding entry in assay [3] is listed as “binds”.

B37: RD-R2 (peptide)
peptide: DTCADLVRLGLECWA
Regarding B37, the binding entry with rat albumin (rat) [5], with mouse albumin (mouse), with rhesus albumin (rhesus) and in the assay with rat albumin (rat) [7] was “binds” each time.

B38: phage clone … (peptide)
peptide: WAADCAWHLGELVWCTKVEE
As to B38, the binding result in assay [3] is given as “binds”.

B39: RC-R13 (peptide)
peptide: DICLPRWGCLW
For the molecule B39, the binding result with rat albumin (rat) [5], in the assay with mouse albumin (mouse) and with rat albumin (rat) [7] was “binds” each time.

B40: phage clone … (peptide)
peptide: WEADCAAHLGELVWCTKVEE
Turning to B40, in assay [3], the binding result was “binds”.

B41: phage clone … (peptide)
peptide: WEAACAWHLGELVWCTKVEE
Turning to B41, in [3], the binding result is reported as “binds”.

B42: phage clone … (peptide)
peptide: WEAACSWHLGELVWCTKVEE
As to B42, in assay [3], the binding result is “binds”.
